According to ChEMBL document CHEMBL1146283, “Development of potent, orally active 1-substituted-3,4-dihydro-2-quinolone glycogen phosphorylase inhibitors” (Bioorg Med Chem Lett, 2007):

Legend:
in vitro [1] = conditions: human, Caco-2
in vitro [2] = conditions: human, Caco-2; remark: listed apart in the source

SMILES	Papp A→B (in vitro [1]) [×10⁻⁶ cm/s]	Papp B→A (in vitro [2]) [×10⁻⁶ cm/s]
O=C(NC1Cc2ccccc2N(CC(CO)CO)C1=O)c1cc2cc(Cl)sc2[nH]1 (racemic)	17	10
NC(=O)CN1C(=O)C(NC(=O)c2cc3cc(Cl)sc3[nH]2)Cc2ccccc21 (centres undefined)	12	7
